The nature of the data set: general procedure: Fmoc solid-phase peptide synthesis; Rink Amide MBHA; HATU / N,N-diisopropylethylamine (2,4,6-collidine for Cys and chloroacetic acid). The following applies: whole synthesis, scale 0.2 mmol, TFA salt.

Here are results for 1 substance from PMC11154707 (The Journal of Biological Chemistry, 2024).

HELM strings list residues between dots; [ac] is acetyl, [am] amide, other brackets name non-standard units.

As for “PEPTIDE1{[CH2CO].Y.[MeAla].N.P.H.L.[Hyp].W.S.[Trp(Me)].[MeNle].[MeNle].[Orn].C.G.[am]}$PEPTIDE1,PEPTIDE1,1:R3-15:R3$$$V2.0”, the isolated mass is 70 mg and the isolated yield is on record as 18%.
